Measured values published in paper PMC9693259, “Synthesis, Self-Assembly in Crystalline Phase and Anti-Tumor Activity of 2-(2-/4-Hydroxybenzylidene)thiazolo[3,2-a]pyrimidines” (Molecules, 2022).

Assays:
Format in all cases: cell-based
Settings in all cases: selectivity index = IC50 normal cells (Chang liver) / IC50 cancer cells
[1] = tested on: M-HeLa clone 11 (epithelioid carcinoma of the cervix, subline HeLa, clone M-HeLa); assay: MTT cytotoxicity test, M-HeLa; parameters: key: ns—no selectivity
Procedure: (§1) Formazan crystals were added to 100 µL of DMSO. […] The experiments for all compounds were repeated three times.

[2] = tested on: MCF-7 (human mammary duct adenocarcinoma cell line); assay: MTT cytotoxicity test, MCF-7; parameters: key: ns—no selectivity
Procedure: as §1

[3] = tested on: PC3 prostate adenocarcinoma cell line; assay: MTT cytotoxicity test, PC3; parameters: key: ns—no selectivity
Procedure: as §1

[4] = tested on: HuTu 80 human duodenal adenocarcinoma; assay: MTT cytotoxicity test, HuTu 80
Procedure: as §1

SMILES | SI M-HeLa [1] | SI MCF-7 [2] | SI PC3 [3] | SI HuTu 80 [4]
CCOC(=O)C1=C(C)N=c2s/c(=C\c3ccccc3O)c(=O)n2C1c1ccccc1 (stereo not drawn) [Compound 7, ethyl (Z)-2-(2-hydroxybenzylidene)-7-methyl-3-oxo-5-phenyl-2,3-dihydro-5H-thiazolo[3,2-a]pyrimidine-6-carboxylate] | 6.3 | 1.7 | ns | 7.5
CCOC(=O)C1=C(C)N=c2s/c(=C\c3ccccc3O)c(=O)n2C1c1cccc([N+](=O)[O-])c1 (stereo not drawn) [Compound 10, Ethyl (Z)-2-(2-hydroxybenzylidene)-7-methyl-5-(3-nitrophenyl)-3-oxo-2,3-dihydro-5H-thiazolo[3,2-a]pyrimidine-6-carboxylate] | 1.6 | 1.6 | 1.6 | 6.0
CCOC(=O)C1=C(C)N=c2s/c(=C\c3ccccc3O)c(=O)n2C1c1ccc(Br)cc1 (stereo not drawn) [Compound 12, Ethyl (Z)-5-(4-bromophenyl)-2-(2-hydroxybenzylidene)-7-methyl-3-oxo-2,3-dihydro-5H-thiazolo[3,2-a]pyrimidine-6-carboxylate] |  | 1.5 | 2.8 | 3.3
CNC(=O)c1cc(Oc2ccc(NC(=O)Nc3ccc(Cl)c(C(F)(F)F)c3)cc2)ccn1 [Sorafenib, reference compound] | ns | ns | ns | 1.7
